“And” between values parts separate entries of the source, which are not always exact repeats. Equal entries are not always repeated. Hit rate of the full screen: of about 78,000 compounds, about 1,800 (2.3%) were called active. This list was built around the results that the source calls inconclusive (neither active nor inactive); the mix of calls is not that of the screen. Rule as the data show it: active = inhibition above about 30%; inconclusive = mostly about 10% to 28%; inactive = weaker than that.
target: Interleukin-1 receptor-like 1 (Homo sapiens) (UniProt Q01638); assay: blocks human ST2 binding to IL-33, primary screen, biochemical, AlphaLISA (AID 1259354); details: AlphaLISA ST2-Fc/biotin-IL-33 interaction, 1 h; at 17 µM, active compounds read high

By UniProt entry, the sequences of proteins in these tests, tags left out. Where a name states a change or a piece, a line headed by the entry shows the natural chain unless it says otherwise.
UniProt Q01638: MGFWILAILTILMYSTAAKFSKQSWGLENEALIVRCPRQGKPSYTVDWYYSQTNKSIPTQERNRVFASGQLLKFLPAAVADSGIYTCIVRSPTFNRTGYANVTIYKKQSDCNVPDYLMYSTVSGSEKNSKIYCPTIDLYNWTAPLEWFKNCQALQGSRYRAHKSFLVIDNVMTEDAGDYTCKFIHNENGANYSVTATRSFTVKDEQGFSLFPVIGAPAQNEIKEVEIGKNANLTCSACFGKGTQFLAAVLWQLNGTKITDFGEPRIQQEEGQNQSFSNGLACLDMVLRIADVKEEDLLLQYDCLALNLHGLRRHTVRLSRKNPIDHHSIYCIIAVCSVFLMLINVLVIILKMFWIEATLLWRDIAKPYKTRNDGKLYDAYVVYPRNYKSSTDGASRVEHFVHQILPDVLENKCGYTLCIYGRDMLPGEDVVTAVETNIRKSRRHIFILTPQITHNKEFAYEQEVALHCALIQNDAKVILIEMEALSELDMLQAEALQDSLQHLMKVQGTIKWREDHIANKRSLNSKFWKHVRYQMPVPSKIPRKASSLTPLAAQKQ

SMILES | inhibition
Cc1cc(=O)oc(C)c1C(=O)NCc1ccc(F)cc1 | inconclusive: 10%
CC(=O)Nc1c(C)[nH]n(-c2ccccc2)c1=O | inconclusive: 20%
N=c1c2c3c(sc2ncn1Cc1ccccc1)CCCC3 | inactive
CCN(CC)CCN(C)Cc1cc(OC)c(OC)c(OC)c1 | inactive
Cc1nc2sc(C(c3ccccc3)N3CCCC(C)C3)c(O)n2n1 (stereo not drawn) | inconclusive: 14%
CN1CCN([C@H]2[C@@H]3OC[C@@H](O3)[C@@H](NC(=O)Nc3ccccc3)[C@@H]2O)CC1 | active: 35%
COc1cc(NC(=O)c2ccc(C)c(C)c2)c(OC)cc1NC(=O)c1ccccc1 | inconclusive: 20%
CSCC(=O)N1CC[C@H](NC(=O)Nc2cccc(SC)c2)[C@H]1C(=O)N[C@@H](Cc1cccs1)C(N)=O | inconclusive: 16%
COc1ccc(-n2nc3ccc(NC(=O)COc4ccc(Br)cc4)cc3n2)cc1 | inconclusive: 15%
COc1ccc(CC(=O)Nc2c3c(nn2C(C)(C)C)CSC3)cc1 | inactive
CCOC=NC1=C(C#N)C(c2ccc(Cl)cc2)C2=C(CC(C)(C)CC2=O)O1 (stereo not drawn) | active: 79%
COc1cc2c(cc1-c1nccn1Cc1ccc(Cl)s1)OCO2 | inconclusive: 29%
CN1C(=O)C2(CCN(C(=O)CCc3ccc(=O)[nH]n3)CC2)c2ccccc21 | inconclusive: 25%
CN(C)c1ccc(C(=O)N[C@H]2C[C@@H](c3nc(-c4cnccn4)no3)N(C)C2)cc1 | inconclusive: 19%
CC1=CC[C@@H]2CN(C(=O)c3cc(C(C)(C)C)[nH]c(=O)n3)C[C@@H]2C1 | inconclusive: 10%
CC(C)NC(=O)NC[C@H]1O[C@@H](CO)[C@@H](O)[C@H]1N1CCN(c2cccc(C(F)(F)F)c2)CC1 | active: 44%
COc1ccccc1C1CC(c2ccc(C)cc2)Nc2nc(N)nn21 (stereo not drawn) | inconclusive: 17%
CC(c1ccccc1)N1CCC(=O)C2=C1CCCC2 (stereo not drawn) | inconclusive: 17%
Cc1nc(CN2CCN(C(=O)CC3COCCN3)CC2)cs1 (stereo not drawn) | inconclusive: 18%
O=C(c1cccc(-c2ncc[nH]2)c1)N1CCOC(CCCc2ccccc2)C1 (stereo not drawn) | inconclusive: 22%
COc1cc(/C(C)=C/C(C)CC(=O)O)oc(=O)c1C (stereo not drawn) | inconclusive: 14%
O=C(Nc1ccc(Br)cc1)c1cc(=O)c2ccccc2o1 | inactive
CCOc1cnn(-c2ccccc2)c(=O)c1Cl | inconclusive: 10%
O=c1cccc(-c2ccc(Br)cc2)o1 | inconclusive: 10%

SMILES | inhibition
C=C1C(=O)OC2/C=C(\CO)CC/C=C(/C=O)C(O)C(OC(=O)C(C)CC)C12 (stereo not drawn) | inconclusive: 14%
COCCN(Cc1ccc(C)cc1)Cc1ccccn1 | inconclusive: 21%
Cc1cc(C(=O)NCC2CCN(C)C2)c(NC(=O)C(C)(C)C)s1 (stereo not drawn) | inconclusive: 15%
Cc1ccc(N2C(=O)[C@H]3C4c5ccccc5C(CO)(c5ccccc54)[C@H]3C2=O)cc1Cl | inconclusive: 16%
O=C(Nc1ccccc1F)c1cccc([N+](=O)[O-])c1C(=O)O | inactive
O=C(CCN1CCCCC1)c1ccc(O)cc1 | inactive
COc1ccc(Nc2cc(C)nc(Nc3ccc(NC(=O)c4ccco4)cc3)n2)cc1 | inconclusive: 27%
COc1ccc(NC(=O)Cn2cnc3scc(-c4ccccc4)c3c2=O)cc1Cl | inactive
CC(C)C(NS(=O)(=O)c1ccc2c(c1)oc(=O)n2C)C(=O)NCc1ccccc1Cl (stereo not drawn) | inactive
CC1(C)CC(=O)C(C(N)=NC(=O)c2ccccc2)=C(O)C1 | inconclusive: 13%
CCOC(=O)C1(Cc2cccc(Cl)c2)CCCN(C(=O)C2=C(C)OCCO2)C1 (stereo not drawn) | inactive
CC(C)C(=O)Nc1cccnc1-c1ccn[nH]1 | inactive
CSc1nc2c(c(=O)[nH]1)C(c1cccc(Br)c1)C1=C(CCCC1=O)N2 (stereo not drawn) | inactive
CNC(=O)C1CCN(Cc2ccc(C(=O)Nc3cc(F)ccc3C)cc2)C1 (stereo not drawn) | inactive
Cc1cc([N+](=O)[O-])nn1CCCC(=O)Nc1cc(Oc2ccccc2)cc([N+](=O)[O-])c1 | inconclusive: 13%
COC(=O)C12Oc3cc4c(c(O)c3C(O)=C1C(=O)CCC2O)C1C=CC2(C4)C(=O)c3cc(C)cc(O)c3C(O)=C2C1=O (stereo not drawn) | inactive
Cc1ccccc1CSC1=NCCN1C(=O)c1ccc(C)c([N+](=O)[O-])c1 | inconclusive: 15%
CCOc1ccccc1C(=O)Nc1ccc([N+](=O)[O-])c(NC(=O)c2ccccc2OCC)c1 | inactive
CC1CCCCN1C(=O)c1ccc([N+](=O)[O-])cc1Cl (stereo not drawn) | inconclusive: 11%
CCOCCCNC(=O)c1cc2cc3ccc(C)cc3nc2s1 | inconclusive: 27%
CCOC(=O)C1(CC2CC2)CCN(C(=O)c2ccc3nc(C)[nH]c3c2)CC1 | inconclusive: 11%
c1ccc2c(c1)[nH]c1nc(SCCCN3CCOCC3)nnc12 | inactive
CN(C(=O)Cn1c(=O)n(-c2ccc(F)cc2F)c(=O)c2sccc21)c1ccccc1 | active: 47%
O=C(CC1CCc2ccccc21)NCc1cnn2ccccc12 (stereo not drawn) | inconclusive: 11%

SMILES | inhibition
CN(C)S(=O)(=O)CCNCCC(=O)N1CCCc2ccccc21 | inactive
COc1cc(OC)c(C2SCCN2S(=O)(=O)c2cccc(C)c2)cc1OC (stereo not drawn) | inactive
CCN(CC)CCn1c(SCC(=O)N2CCCCC2C)nc2c(sc3ccccc32)c1=O (stereo not drawn) | inactive
Cc1ccc(Nc2ncnc3c2cnn3-c2ccccc2)cc1Cl | inactive
O=C(NCc1ccncc1)C(=O)Nc1cccc(F)c1 | inactive
O=C1CSc2ccc(C(=O)NCCCN3CCN(Cc4ccccc4)CC3)cc2N1 | inactive
COc1ccc(N(C(C)=O)C2C=CS(=O)(=O)C2)c(OC)c1 (stereo not drawn) | inconclusive: 13%
O=[N+]([O-])c1ccc(N2CCN(S(=O)(=O)c3ccc(Cl)c(Cl)c3)CC2)cc1NC1CC1 | active: 30%
COc1ccccc1OC1CCN(C(=O)c2ccc(-n3cc(NC(=O)c4ccoc4)cn3)cc2)CC1 | inactive
CCOc1ccc(S(=O)(=O)Nc2cc(Cl)ccc2OC)c2cccnc12 | inactive
OC[C@H]1CCN(Cc2c(Cl)cncc2Cl)C[C@@H]1O | inconclusive: 15%
O=C(CCC(=O)N1CCc2cc(S(=O)(=O)N3CCc4ccccc4C3)ccc21)N1CCCC1 | inconclusive: 10%
O=C(CN1CCOc2ccccc21)NCc1cccs1 | inconclusive: 20%
CC(=O)N1CC[C@H](c2nnc(Cc3c[nH]c4ccccc34)o2)C1 | inconclusive: 17%
CC(=O)Cc1nsc(Nc2ccc(F)c(Cl)c2)n1 | inactive
O=C(c1c[nH]c(=O)cn1)N1CCc2nnc(CCc3ccccc3)n2CC1 | inconclusive: 14%
Clc1ccc(OCCN2CCCC2)c(Br)c1 | inactive
CN[C@@H](C)C(=O)N1CC[C@H](NS(=O)(=O)c2cccc(C(F)(F)F)c2)C[C@H]1C(=O)N[C@@H](C(=O)OC)C(C)C | inconclusive: 11%
CSc1nc(N2CCOCC2)c2c(c1C#N)CC(C)(C)OC2 | inconclusive: 12%
O=C(NCC1CCN(Cc2cccnc2)C1)Nc1ccccc1Cl (stereo not drawn) | inconclusive: 17%
CN1CCN(Cc2cc([N+](=O)[O-])c(O)c3ncccc23)CC1 | inconclusive: 20%
COC(=O)[C@@H]1C[C@@H](N(C)C)CN1C(=O)c1cc2ccccn2n1 | inconclusive: 16%
O=C(O)c1cccc(-n2c(C3CCC3)n[nH]c2=O)c1 | inconclusive: 13%
CCOc1cc(/C=C2\C(=O)NC(=O)N(c3ccccc3)C2=O)ccc1O | inactive

SMILES | inhibition
COc1cc(O)c(C(=O)c2ccccc2)cc1[N+](=O)[O-] | inconclusive: 10%
COc1cc(OC)cc(C(=O)N2CCN=C2SCc2ccc(C)cc2)c1 | inactive
O=C(NCC1CCCN(C(=O)C2=CCCCC2)C1)c1ccc(-c2ccccc2)cc1 (stereo not drawn) | inconclusive: 20%
O=C(CSc1ccccc1C(=O)O)Nc1cccc(C(F)(F)F)c1 | inconclusive: 21%
O=C(C1CCCCC1)N1CCc2ccccc2C1 | inactive
O=c1oc2cc(O)ccc2cc1-c1nc2ccccc2[nH]1 | inconclusive: 24%
Cc1cnc(C(=O)N2CCC3(CCCN(Cc4ccccc4F)C3=O)C2)[nH]1 (stereo not drawn) | inactive
CC1=C(C(N)=O)C(c2ccccc2)n2nc(SCc3ccccc3F)nc2N1 (stereo not drawn) | inconclusive: 13%
COc1cccc(C(=O)N2CCN(S(=O)(=O)NCc3ccccc3)CC2)c1 | inconclusive: 16%
O=C(/C=C/c1cccc([N+](=O)[O-])c1)c1ccc(NC(=O)c2ccco2)cc1 | inconclusive: 26%
C#CCOc1c(Cl)cc(/C=C2/NC(=O)NC2=O)cc1OC | inconclusive: 11%
Cc1oc(C(C)C)cc1C(=O)N1CCC(Cn2cc(CO)nn2)CC1 | inactive
Cc1cc2nc(CNC(=O)c3cnn4c3CCCC4)[nH]c2cc1C | inconclusive: 21%
O=C(CCC(=O)N1CCc2cc(S(=O)(=O)N3CCCCC3)ccc21)N1CCCC1 | inconclusive: 16%
N#Cc1ccc(CNC(=O)[C@@H]2Cc3nc[nH]c3CN2Cc2ccccc2)cc1 | inconclusive: 21%
CCCc1nnc2sc(C3(c4ccc(F)cc4)CCOCC3)nn12 | inconclusive: 13%
COCCN(Cc1ccc(C)cc1)C(=O)C1CCN(c2ncccn2)CC1 | inconclusive: 15%
O=C(NCCc1ccccc1)C1CCCN(C2CCN(C(=O)c3ccoc3)CC2)C1 (stereo not drawn) | inactive
O=C1CCCC2=C1C(c1ccncc1)n1nc(SCc3ccccc3Cl)nc1N2 (stereo not drawn) | inconclusive: 19% and inconclusive: 12%
Cc1nc(N2CCN(c3ccccn3)CC2)c2c(C)c(C(=O)N3CCCC3)sc2n1 | inconclusive: 15%
O=C(CC1(O)C(=O)Nc2ccc(Br)cc21)c1cccc([N+](=O)[O-])c1 (stereo not drawn) | inactive

No new results follow: 3 of the compounds above.
SMILES | inhibition
COc1cccc(C(=O)N2CCN(S(=O)(=O)NCc3ccccc3)CC2)c1 | inconclusive: 16%
O=C(/C=C/c1cccc([N+](=O)[O-])c1)c1ccc(NC(=O)c2ccco2)cc1 | inconclusive: 26%
C#CCOc1c(Cl)cc(/C=C2/NC(=O)NC2=O)cc1OC | inconclusive: 11%
